The source of these data is the supplement of paper PMC9671908.

Counter-ions that a name gives are not always drawn. The list shows a part of the results. Most values come without repeats; read them as rough.

For one test, the system named is MIA PaCa-2 parental. Put plainly: parental cell viability relative to untreated parental control; higher = more surviving cells. The note with it: treatment time: 9 days.
The test system of a further test is MIA PaCa-2 persister. Briefly: persister cell viability relative to untreated persister control; higher = more surviving persister cells. As to conditions: treatment time: 9 days; cell state: persister (100 nM gemcitabine + 100 nM Torin1).

As for `CN1C(=O)[C@@H](NC(=O)c2cc(Cc3ccccc3)on2)COc2ccccc21` (inhibitor concentration: 30µM), the parental cell viability with MIA PaCa-2 parental was found to be 99.5%. In addition, in the test with MIA PaCa-2 persister, the persister cell viability worked out at 98%.
The like results for `Nc1ncn([C@H]2C[C@H](O)[C@@H](CO)O2)c(=O)n1` [Decitabine] (inhibitor concentration: 30µM) were, in that order, 41% and 99.5%.
For `N#CC[C@H](C1CCCC1)n1cc(-c2ncnc3[nH]ccc23)cn1` [Ruxolitinib (phosphate)] (inhibitor concentration: 60µM) the same measures were 5% and 101%.
The like results for `C=CCn1c(=O)c2cnc(Nc3ccc(N4CCN(C)CC4)cc3)nc2n1-c1cccc(C(C)(C)O)n1` [Adavosertib] (inhibitor concentration: 100nM) were, in that order, 103% and 20%.
With `COc1c(OCCCN2CCOCC2)ccc2c1N=C(NC(=O)c1cnc(N)nc1)N1CCN=C21` [Copanlisib (BAY 80-6946)] (inhibitor concentration: 1µM), the parental cell viability in the test with MIA PaCa-2 parental was determined as 40%. The persister cell viability in the test with MIA PaCa-2 persister was determined as 94.5%.
For `CCc1cncnc1N1CCN(Cc2nc3ccc(C(F)(F)F)cc3[nH]2)CC1` (inhibitor concentration: 1µM) the same measures were 103% and 230%.
The like results for `C=CC(=O)N1CCC[C@@H](n2nc(-c3ccc(Oc4ccccc4)cc3)c3c(N)ncnc32)C1` [Ibrutinib] (inhibitor concentration: 3µM) were, in that order, 102% and 102%.
As to `O=C(Nc1ccc([N+](=O)[O-])cc1Cl)c1cc(Cl)ccc1O` [Niclosamide] (inhibitor concentration: 100nM), the parental cell viability in the test with MIA PaCa-2 parental was found to be 96%. Moreover, the persister cell viability in the test with MIA PaCa-2 persister worked out at 104%.
The like results for `C[C@@]1(C(=O)Nc2ccc(F)nc2)CCCN1c1nc(Nc2cc(C3CC3)n[nH]2)c2cccn2n1` (inhibitor concentration: 10µM) were, in that order, 6% and 97%.
For `O=C1NC(=O)C(c2cnc3ccccn23)=C1c1cn2c3c(cc(F)cc13)CN(C(=O)N1CCCCC1)CC2` (inhibitor concentration: 100nM) the same measures were 63% and 22%.
For `O=C(Nc1cc(Oc2cc(F)c(NC(=O)C3(C(=O)Nc4ccc(F)cc4)CC3)cc2F)ccn1)C1CC1` [Altiratinib] (inhibitor concentration: 3µM) the same measures were 106% and 100%.
As to `CC1(COc2ccc3c(c2)ncn3-c2ccc3cccc(N4CCC(N)CC4)c3n2)COC1` [Crenolanib] (inhibitor concentration: 3µM), in the test on MIA PaCa-2 parental, the parental cell viability was found to be 1%. Besides, the persister cell viability in the test on MIA PaCa-2 persister is 135%.
The like results for `O=C(CCCCCN1C(=O)c2cccc3cccc(c23)C1=O)NO` [Scriptaid] (inhibitor concentration: 1µM) were, in that order, 97% and 25%.
For `NC1(c2ccc(-c3nc4ccn5c(=O)[nH]nc5c4cc3-c3ccccc3)cc2)CCC1` (inhibitor concentration: 3µM) the same measures were 91% and 91.5%.
Take `O=C(NC1CCOCC1)c1ccc(-c2cc(-c3c[nH]nc3-c3ccccn3)ccn2)cc1` (inhibitor concentration: 10µM): in the test on MIA PaCa-2 parental, the parental cell viability was 109%. Further, the persister cell viability with MIA PaCa-2 persister is 95%.
The like results for `NC(=O)c1ncn([C@@H]2O[C@H](CO)[C@@H](O)[C@H]2O)c1N` (inhibitor concentration: 1µM) were, in that order, 96.5% and 106%.
For `Nc1nc2cc(CC[C@H]3C[C@@H](n4ccc5c(N)ncnc54)[C@H](O)[C@@H]3O)ccc2cc1Br` (inhibitor concentration: 30µM) the same measures were 93% and 90.5%.
Turning to `CCn1c(-c2nonc2N)nc2c(C#CC(C)(C)O)ncc(OC[C@H]3CCCNC3)c21` (inhibitor concentration: 1µM), the parental cell viability in the test on MIA PaCa-2 parental stood at 100%. For the same compound, the persister cell viability in the test on MIA PaCa-2 persister amounted to 5%.
For `CC[C@H](C)[C@H](NC(C)=O)C(=O)N[C@@H](CCC(=O)O)C(=O)N[C@H](C(=O)N[C@H](C=O)CC(=O)O)[C@@H](C)O` [Ac-IETD-CHO (trifluoroacetate-salt)] (inhibitor concentration: 10µM) the same measures were 102% and 95%.
The like results for `CNC(=O)c1ccccc1Sc1ccc2c(/C=C/c3ccccn3)n[nH]c2c1` [Axitinib] (inhibitor concentration: 3µM) were, in that order, 15% and 104%.
For the compound `CC(C)(O)CNc1ncc(-c2ccnc(Nc3ccncc3)n2)c(CC2CC2)n1` [VPS34 inhibitor 1] (inhibitor concentration: 3µM), the parental cell viability in the test with MIA PaCa-2 parental is 99%. The persister cell viability with MIA PaCa-2 persister was determined as 45%.
The like results for `CC(=O)N[C@@H](CC(=O)O)C(=O)N[C@@H](CCC(=O)O)C(=O)N[C@H](C(=O)N[C@H](C=O)CC(=O)O)C(C)C` [Ac-DEVD-CHO (trifluoroacetate-salt)] (inhibitor concentration: 10µM) were, in that order, 102% and 96%.
For `NC1(Cc2ccc(Cl)cc2)CCN(c2ncnc3[nH]ccc23)CC1` (inhibitor concentration: 10µM) the same measures were 109% and 110%.
For `Cc1cc(Nc2cc(N)ncn2)c(=O)n2c1C(=O)NC21CCCCC1` [Tomivosertib (eFT-508)] (inhibitor concentration: 100µM) the same measures were 79% and 108%.
For the compound `CCC[C@H](N)C(=O)O` [L-Norvaline] (inhibitor concentration: 1µM), in the test with MIA PaCa-2 parental, the parental cell viability stood at 95%. The persister cell viability in the test on MIA PaCa-2 persister came out at 160%.
